± gives the standard deviation. The list shows a part of the results, in another mix than the full data. Many of these values have a large error. The list shows a part of the results.
Legend:
[1] = test system: MILI (PIWIL2) piRISC loaded with L1MC piRNA (26 nt); assay: pre-steady-state target cleavage rate (min^-1); higher = faster piRNA-guided slicing of the target; conditions: guide: L1MC piRNA 5'p-UAACUAAAUACUAUGCAAGCUGUAGG
Procedure, shortened: (§1)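 Three pooled Cleave-'n-Seq trials supplied the data, with k3 capped at 0.0001 min^-1. In each, […] transcribed, DNA-blocked target RNA library and 1 nM active affinity-purified piRISC with one synthetic guide reacted in HEPES–potassium acetate buffer at 33 °C for 0–8 or 0–960 min, with or without 500 nM GTSF1 partner protein. Uncleaved targets were sequenced and normalised to depth and to weakly complementary targets. A burst-and-steady-state fit provided the pre-steady-state cleavage rate.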

[2] = test system: MIWI (PIWIL1) piRISC loaded with L1MC piRNA (30 nt); assay: as above; conditions: guide: L1MC piRNA 5'p-UAACUAAAUACUAUGCAAGCUGUAGGUCCU
Procedure, shortened: as §1

[3] = test system: EfPiwi piRISC loaded with L1MC piRNA (26 nt); assay: pre-steady-state target cleavage rate (min^-1); guide: L1MC piRNA 5'p-UAACUAAAUACUAUGCAAGCUGUAGG; MIWI and MILI are mouse PIWI proteins and EfPiwi is from a freshwater sponge; tags in brackets are library labels; higher = faster piRNA-guided slicing of the target; conditions: auxiliary factor: 500 nM Ephydatia muelleri Gtsf1
Procedure, shortened: as §1

[4] = auxiliary factor: none (no GTSF1)
[5] = auxiliary factor: 500 nM mouse GTSF1

Sequence	pre-steady-state target cleavage rate [1, 4]	pre-steady-state target cleavage rate [2, 4]	pre-steady-state target cleavage rate [3]	pre-steady-state target cleavage rate [1, 5]	pre-steady-state target cleavage rate [2, 5]
UCCUGGAUGUCCUUGCAUACUAUAUAGUUA	0.00151 ± 0.0039	0.000833 ± 0.0076	0.000254 ± 0.014		
UCCUGGUACAGCUUGCAUAGUUAUUACAAA	0.000896 ± 0.007	0.000938 ± 0.0059	0.000576 ± 0.0052		
UCCUGGUACAGCUUGCAUACUAUUUACAAA	0.00193 ± 0.0045	0.00182 ± 0.0044	0.000922 ± 0.0046		
UCCUGGAUGUCGAACCAAUAGUAUUUAGUUA	0.000782 ± 0.0049	0.000288 ± 0.012	0.000188 ± 0.015	0.000682 ± 0.0053	0.000194 ± 0.015
UCCUGGAUGUCGAACCAUUGUAUUUAGAUA	0.000206 ± 0.016	0.000405 ± 0.011	0.000214 ± 0.014		
UCCUGGAUGUCGAUGCAUAGUAUUAGUUA	0.000494 ± 0.0097	0.00168 ± 0.0048	0.00119 ± 0.0043		
UCCUGGAUGUCGAAGCAUACUAUUUUGUUA	0.000195 ± 0.021	0.000272 ± 0.015	< 0.0001		
UCCUGGAUCAGCUUGGUAAGUAUUUUCAAA	0.000719 ± 0.0063		0.000295 ± 0.011		0.00081 ± 0.013
UCCUGGAUGUCCUUGCAAAGAAUUUAGUUA		0.00114 ± 0.0056	0.00105 ± 0.0088	0.00356 ± 0.0052	
UCCUGGAUGUCGAAGCAUAGUAUUUACUUA	0.000515 ± 0.01	0.00066 ± 0.011	0.000238 ± 0.012		
UCCUGGAUGUCCUUGCAUAGUAUAAAGUAA	0.00147 ± 0.0039	0.00122 ± 0.0071	0.000888 ± 0.0093		
UCCUGGUACAGGAAGCAUAGUAUUUACAAA	0.000792 ± 0.008	0.00104 ± 0.0061	0.000691 ± 0.0047		
UCCUGGUACUCGUUGCAUAGUAUUUAGUAA	0.00168 ± 0.005	0.00163 ± 0.005	0.000613 ± 0.0067		
UCCUGGAACAGCUUGCAUAGUAUAAACAAA	0.00114 ± 0.0053	0.00201 ± 0.0042	0.00237 ± 0.0044		
UCCUGGAUGUCGAACGUUAGUAUUUAAGUUA			0.00035 ± 0.017	0.000411 ± 0.015	0.000353 ± 0.015
UCCUGCUACAGCUUGCUAUGUAUUUAGAAA	0.00113 ± 0.0041	0.00057 ± 0.0086	0.000921 ± 0.0076		
UCCUGGAUGUCCUUGCAUAGUAUUUUGAUA	0.000785 ± 0.0084	0.00151 ± 0.0044	0.00168 ± 0.0035		
UCCUGGAUGUCCUUCCAUAGUAUUAAGUUA	0.000567 ± 0.0091	0.000632 ± 0.009	0.000164 ± 0.023		
UCCUGGAUGUCGAACCAUAGUAUUUAGUAA		0.00033 ± 0.012	0.00043 ± 0.012	0.00131 ± 0.0058	
UCCUGCUACAGCUUGCAUACAUUUUUCAAA	0.000652 ± 0.0065	0.000214 ± 0.018	0.000753 ± 0.0077		
UCCUGGAUGUCGAAGCAUAGUAUUUUGUAA	0.000682 ± 0.0059	0.00025 ± 0.018	0.000341 ± 0.0098		
UCCUGGUACAGCUUGCAUACUAUUUUCAAA	0.00138 ± 0.0065	0.000819 ± 0.0054	0.000839 ± 0.0041		
UCCUGCUACAGCUUGCAUACAUUUUAGAAA	0.000159 ± 0.017	0.000186 ± 0.014	0.0012 ± 0.0057		
UCCUCCUACAGCAACCAUAGUAUUUAGAAA	0.00066 ± 0.0081	0.000673 ± 0.0097	0.00166 ± 0.0044		
UCCUGGUACAGCUUGCAUUGUAUUUUCAAA	0.00121 ± 0.0089	0.00102 ± 0.0061	0.000757 ± 0.0048		

An excerpt of these results, as labelled records.
UCCUGGUACAGCUUGCAUAGUUAUUACAAA
  pre-steady-state target cleavage rate [1, 4] = 0.000896 ± 0.007; pre-steady-state target cleavage rate [2, 4] = 0.000938 ± 0.0059; pre-steady-state target cleavage rate [3] = 0.000576 ± 0.0052
UCCUGGUACAGCUUGCAUACUAUUUACAAA
  pre-steady-state target cleavage rate [1, 4] = 0.00193 ± 0.0045; pre-steady-state target cleavage rate [2, 4] = 0.00182 ± 0.0044; pre-steady-state target cleavage rate [3] = 0.000922 ± 0.0046

Reference: the supplement of paper PMC10338343
